Laboratory results as given in PubChem BioAssay AID493014 (National Center for Advancing Translational Sciences (NCATS), 2011).
Out of some 340,000 compounds screened, about 170 (0.05%) were called active. Inconclusive results, whose numbers are uncertain, are shown with a selection of clear calls. Calls come from the whole dose curve; as a rule, active = well fitted inhibition curve with a large enough effect in the signal ratio, with a control signal flat (not every such curve was filed as active); inconclusive = small, poorly fitted or top-dose-only effect, or effect the other way, or a change in a side signal; inactive = flat fitted curve, though single readings scatter; the % refers to the signal ratio. Potencies of inconclusive entries are doubtful fits and often do not repeat.

Experiment: qHTS Assay to Find Inhibitors of Chronic Active B-Cell Receptor Signaling;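 for activity change, negative = inhibition: plate controls were basal doxycycline-induced cells for no effect and cells given 10 µM MG132 for full effect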
Settings: ABC-DLBCL IkBa-CBG/CBR reporter, luminescence ratio (green luciferase fused to IkBa over red control in TMD8 lymphoma cells), 4 h; activity change, negative = inhibition: at 46.1 µM (top of the series)
Method in brief: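 Cell line TMD8 (human ABC DLBCL), stably expressing tet-inducible CBG68-IkBa fusion and CBR; IMDM/0.5% FBS; cpd up to 46 uM; dox induction, 4 h, 37C/5% CO2; dual luminescence; green/red ratio; MG132 control.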
Potency is the fitted concentration of half-maximal effect.

| Structure (SMILES) | activity change, negative = inhibition | Potency |
| --- | --- | --- |
| CCOC(=O)c1ccc(NC(=O)CSc2nnc(CNc3ccc(C)cc3)n2C)cc1 | inconclusive: 22.8% | – |
| COC(=O)CSc1nnc(C)c(=O)[nH]1 | inconclusive: 0.603% | – |
| CCOCCCNC(=O)C1CCN(Cc2cccc(OCc3ccccc3)c2)CC1 | inconclusive: 5.54% | – |
| COc1cccc(Cn2nnc(C(=O)NCc3ccc4c(c3)OCO4)c2N)c1 | – | inconclusive: 7.08 µM [falling, partial curve] |
| COc1ccc(S(=O)(=O)N(C)CC(=O)Nc2ccc(C(N)=O)cc2)cc1OC | – | inconclusive: 35.5 µM [falling, single point] |
| COc1cc(/C=N/NC(=O)c2cc(-c3cccs3)nc3ccccc23)ccc1O | – | inconclusive: 10 µM [falling, partial curve, poor fit] |
| Cc1ccc(-c2cccc(C(=O)NCc3ccccc3)n2)c2ccccc12 | inactive: -7.88% | – |
| Cc1cccc(N2CCN(C(=O)c3ccc(CS(=O)Cc4ccc(Cl)cc4)o3)CC2)c1C (centres undefined) | inconclusive: -14.9% | – |
| Cc1cc(C)cc(OC(C)C(=O)Nc2ccc3c(c2)n(C)c(=O)n3C)c1 (centres undefined) | inconclusive: -5.42% | – |
| COc1ccccc1Nc1nnc(SCC2CCCCO2)s1 (centres undefined) | – | inconclusive: 5.01 µM [cytotoxic, full curve, poor fit] |
| CCn1cc(C(=O)Nc2ccccc2C(=O)OC)c(=O)c2ccc(C)nc21 | – | inconclusive: 15.8 µM [falling, single point] |
| CCN(C(=O)/C=C/c1ccccc1)C1CCCCC1 | inconclusive: 4.73% | – |
| COc1cc(C2c3sc(=O)[nH]c3SC3C(=O)N(c4ccc(C)cc4)C(=O)C32)ccc1O (centres undefined) | – | inconclusive: 35.5 µM [falling, partial curve, poor fit] |
| O=C(Nc1ccnc(-c2ccncc2)n1)c1ccc(Cl)cc1 | inactive: 9.41% | – |
| CC1(C)CCCN(C(=O)c2coc(=O)c(Br)c2)C1 | inconclusive: -5.2% | – |
| Cc1cc(C)cc(-n2c(O)c(C=NC3CCS(=O)(=O)C3)c3ccccc3c2=O)c1 (centres undefined) | inactive: 16.5% | – |
| CSc1ccccc1OCc1cc(C(=O)N(C)Cc2cc(C)[nH]n2)no1 | – | inconclusive: 3.55 µM [falling, full curve] |
| O=C(O)c1cc([N+](=O)[O-])c(NCCC2=CCCCC2)c([N+](=O)[O-])c1 | – | inconclusive: 3.55 µM [activator, partial curve, poor fit] |
| C=CCn1c(SCC(=O)c2cccs2)nc2sc(C)c(C)c2c1=O | – | inconclusive: 8.2 µM [rising, partial curve, poor fit] |
| Cc1cccc(NC(=O)CCOc2ccccc2)c1C | inconclusive: -19.5% | – |
| CCCC(=O)Nc1ccc(C(=O)N/N=C/c2ccc[nH]2)cc1 | inconclusive: 1.99% | – |
| CC(=O)NC(C)C(=O)OCC(=O)c1ccc(-c2ccccc2)cc1 (centres undefined) | inconclusive: 3.05% | – |
| Cc1cc(C(=O)Nc2cccc(C)c2C)c2ccccc2n1 | inactive: 2.49% | – |
| COc1cccc2c(=O)cc(C)n(CC(=O)Nc3cccc(C)c3)c12 | inactive: -0.359% | – |
| O=C(Nc1ccccc1C(=O)NC(Cc1c[nH]c2ccccc12)C(=O)O)c1ccccc1 (centres undefined) | – | inconclusive: 25.1 µM [falling, single point] |
| CSCCC1NC2(C(=O)Nc3c2ccc(Cl)c3C)[C@@H]2C(=O)N(C3CCCC3)C(=O)[C@H]12 (some centres undefined) | inconclusive: 2.39% | – |
| C=CCn1cc(C(=O)NCCCN(CC)CC)c(=O)c2cc(S(=O)(=O)N3CCC(C)CC3)ccc21 | inactive: 3.08% | – |

| Structure (SMILES) | activity change, negative = inhibition | Potency |
| --- | --- | --- |
| O=C(Nc1ccccc1C(=O)N1CCCC1)c1ncoc1-c1cccc(Cl)c1 | inconclusive: 1.03% | – |
| N=c1c(S(=O)(=O)c2ccccc2)cc2c(=O)n3ccccc3nc2n1Cc1ccco1 | inconclusive: -13% | – |
| C/C(=N\NC(=O)c1cccc(F)c1)c1ccc(NC(=O)Cc2ccccc2)cc1 | – | inconclusive: 35.5 µM [falling, single point] |
| COc1ccc(C(=O)COc2ccccc2C#N)cc1 | inconclusive: 7.17% | – |
| CC1CCN(CCCNC(=O)c2cc(Sc3ccc(F)cc3)nc3ccccc23)CC1 | – | inconclusive: 25.1 µM [falling, single point] |
| CCN(CC)CCNC(=O)c1ccc(NC(=O)c2ccc3c(c2)CCC3)cc1 | inactive: -4.51% | – |
| CC(=O)c1cc(CN2CCC(C(=O)Nc3cccc(-c4cscn4)c3)CC2)cs1 | inconclusive: -0.858% | – |
| COc1cccc(C2c3[nH]c4ccccc4c3CCN2Cc2cnc(C)s2)c1OC (centres undefined) | inconclusive: -9.28% | – |
| O=C(CCC(=O)NNc1nc2ccccc2c2nc(-c3ccccc3)nn12)NCCCN1CCCC1=O | inconclusive: 7.94% | – |
| O=[N+]([O-])c1ccc(/C=N/Nc2ccnc3cc(Cl)ccc23)o1 | inconclusive: -8.08% | – |
| Cn1nc(C(=O)OCC(=O)N2CCc3ccccc32)c2ccccc2c1=O | inconclusive: 2% | – |
| CCc1ccc(NC(=O)CCc2ccc(C)o2)cc1 | inactive: 2.34% | – |
| COc1ccc(N2CCN(CCCNC(=O)C(=O)c3c[nH]c4ccccc34)CC2)cc1 | inconclusive: -19.9% | – |
| Cc1ccc(NC(=O)CSc2n[nH]c(-c3ccco3)n2)cc1 | – | inconclusive: 35.5 µM [falling, single point] |
| Cc1ccc(-c2nc3ccc(Cl)cc3n2OC(C)C(=O)O)cc1 (centres undefined) | inconclusive: 5.96% | – |
| COc1ccccc1NCc1nnc(-c2ccccc2)o1 | – | inconclusive: 28.2 µM [falling, single point] |
| CC(C)(C)n1[nH]c2c3c(ccc2c1=O)C(=O)c1ccccc1C3=O | – | inconclusive: 5.17 µM [rising, full curve] |
| Cc1ccc2c(c1)c1c(n2CC(O)CN2CCC(C)CC2)CCCC1 (centres undefined) | inactive: 2.15% | – |
| Nc1nonc1-n1nnc(C(=O)N/N=C/c2ccc(OCc3ccccc3F)cc2)c1CNc1ccccc1 | inactive: 9.3% | – |
| CCOC(=O)C(CC)Sc1nnc2c3cc(C)ccc3n(C)c2n1 (centres undefined) | inconclusive: 0.758% | – |
| COc1ccc(OCC(O)CNCCOc2ccccc2OC)c(C(C)(C)C)c1 (centres undefined) | – | inconclusive: 35.5 µM [falling, single point] |
| COc1ccc(N(C)C(=O)c2cc3c(Cl)nc4ccccc4c3s2)cc1 | inactive: 0.461% | – |
| CCN(CC)S(=O)(=O)c1ccc(C(=O)Nc2ccc3c(c2)OCCO3)cc1 | inconclusive: -1.18% | – |
| C=CCn1c(=O)c2c(C)c(C)sc2n2c(Nc3ccccc3)nnc12 | inconclusive: 6.89% | – |
| O=C(NC1CCCCC1)c1cc(-c2cccc(Cl)c2)on1 | – | inconclusive: 14.1 µM [falling, partial curve] |
| C=CCn1c(CCC(=O)O)ccc1-c1ccccc1 | inactive: 10.7% | – |
| O=C(O)COc1ccccc1-c1nc(-c2ccccc2)c(-c2ccccc2)[nH]1 | – | inconclusive: 17.8 µM [falling, partial curve, poor fit] |

Individual results from above.
C/C(=N\NC(=O)c1cccc(F)c1)c1ccc(NC(=O)Cc2ccccc2)cc1 – Potency: inconclusive: 35.5 µM [falling, single point]
O=C(O)c1cc([N+](=O)[O-])c(NCCC2=CCCCC2)c([N+](=O)[O-])c1 – Potency: inconclusive: 3.55 µM [activator, partial curve, poor fit]

Additional results follow.

| Structure (SMILES) | activity change, negative = inhibition | Potency |
| --- | --- | --- |
| COCCNC(=S)N1CCC(NC(=O)c2ccco2)CC1 | inactive: 0.842% | – |
| COc1ccc2c(c1)c(CC(=O)O)c(C)n2C(=O)c1ccc(Cl)cc1 | – | inconclusive: 18.4 µM [falling, partial curve] |
| CCc1nnc(NC(=O)c2nn(-c3ccccc3)nc2C)s1 | – | inconclusive: 5.62 µM [falling, partial curve, poor fit] |
| COc1ccc(C(=O)/C(C#N)=N/Nc2ccccc2[N+](=O)[O-])cc1 | inconclusive: 6.7% | – |
| CCOC(=O)C(Cc1ccccc1)NS(=O)(=O)c1ccc(NC(C)=O)cc1 (centres undefined) | inactive: -1.6% | – |
| CCc1nnc(NC(=O)c2cc(S(=O)(=O)N3CCN(c4ccccc4)CC3)ccc2Cl)s1 | inactive: 3.55% | – |
| COCC1CCCN(C(=O)c2ccc3oc(CCCc4ccccc4)nc3c2)C1 (centres undefined) | – | inconclusive: 31.6 µM [falling, single point] |
| CCCc1nc([N+](=O)[O-])c(S(=O)(=O)c2ccccc2)n1CC(C)C | – | inconclusive: 14.6 µM [cytotoxic, partial curve] |
| N#Cc1c(NC(=O)c2cnccn2)sc2c1CCCC2 | inactive: 5.44% | – |
| CCn1c(SCC(=O)Nc2nc3ccc(C)cc3s2)nc2c(c1=O)SC(C)C2 (centres undefined) | inconclusive: -8.18% | – |
| CC(=O)c1ccc(NC(=O)CSCCO)cc1 | inconclusive: 0.468% | – |
| O=C1CCN(Cc2ccc(O)cc2)CCN1[C@H](CO)c1ccccc1 | inactive: 0.916% | – |
| CC1CCCC(NC(=O)COC(=O)Cc2ccc(Cl)cc2)C1C (centres undefined) | inconclusive: 0.157% | – |
| CN(C)/C=N/c1ncc(C(=O)c2ccc(-c3ccccc3)cc2)s1 | – | inconclusive: 28.2 µM [falling, partial curve, poor fit] |
| COc1ccc(C(=O)NNC(=O)c2ccccc2[N+](=O)[O-])cc1Br | inconclusive: -17% | – |
| COc1ccc(OC)c(-c2cc(C3CCN(C(=O)OC(C)(C)C)CC3)[nH]n2)c1 | inactive: -12% | – |
| COc1ccc(N(C)S(=O)(=O)c2cccc(C(=O)NCC3CCCO3)c2)cc1 (centres undefined) | inconclusive: -17.1% | – |
| CSc1ccccc1NC(=O)C1=CC(c2ccc(C)cc2)=NS(=O)(=O)N1C | inconclusive: 7.94% | – |
| Oc1ccccc1C(=S)N1CCCCCC1 | inconclusive: -1.17% | – |
| COc1cccc(C(=O)/C=C/Nc2cc(C)ccc2O)c1 | inconclusive: 0.859% | – |
| Cn1cc(C(=O)N/N=C/C(Br)=C\c2ccccc2)ccc1=O | inconclusive: -7.47% | – |
| CCC(=O)N1CCN(c2nc(-c3ccc(Cl)cc3)cs2)CC1 | inactive: 6.86% | – |
| COc1cccc(-n2ccnc2SCC(=O)Nc2ccccc2F)c1 | – | inconclusive: 7.08 µM [falling, partial curve, poor fit] |
| Cc1ccc2c(C(=O)CN3CCC4(CC3)OCCO4)c(C)[nH]c2c1 | inconclusive: -0.629% | – |
| COc1cc(/C=N/Nc2snc(SC)c2C#N)cc(OC)c1OC | inactive: 22.1% | – |

2 consecutive entries out of the list so far, quoted:

| Structure (SMILES) | activity change, negative = inhibition | Potency |
| --- | --- | --- |
| CC1CCCC(NC(=O)COC(=O)Cc2ccc(Cl)cc2)C1C (centres undefined) | inconclusive: 0.157% | – |
| CN(C)/C=N/c1ncc(C(=O)c2ccc(-c3ccccc3)cc2)s1 | – | inconclusive: 28.2 µM [falling, partial curve, poor fit] |
